Results deposited as PubChem BioAssay AID1259308 (NCATS, 2017).

Test: 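Genes whose loss raises luciferase production in HEK293 cells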 (primary screen)
Cell system: human HEK293 embryonic kidney cells stably expressing firefly luciferase (HEK-CMV-Luc2-Hygro)
Reagent: single siRNA against human genes, 0.8 pmol siRNA per well
Time to read-out: 72 h
Measurement: 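Reporter luminescence and viable-cell signal on separate replicate plates, given as percent of non-targeting control and median/MAD z-scores, plus per-cell luciferase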
Scale: total luciferase, z-score: higher = more reporter protein produced
Call rule: 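Active when the median/MAD z-score for overall luciferase is greater than 3; a gene was taken forward for validation with new siRNAs if at least two of its three siRNAs passed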
Meaning of the calls: active = raised luciferase; inactive = no rise
In all, the deposit lists about 59,000 reagents; shown is a random part of them. In the full data, about 1,510 (2.6%) were called active. 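Calls use total luciferase alone and ignore viability, so some active siRNAs may act by altering cell number.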 Reagents against one gene are numbered here. Further read-outs or replicates are left out here. No sequences are given here.

SCLT1 (sodium channel and clathrin linker 1) #1
- total luciferase, z-score: -0.355
- outcome: inactive

SCLT1 (sodium channel and clathrin linker 1) #2
- total luciferase, z-score: -0.438
- outcome: inactive

SCLT1 (sodium channel and clathrin linker 1) #3
- total luciferase, z-score: -1.12
- outcome: inactive

LINC01257 (long independently transcribed non-coding RNA 1257) #1
- total luciferase, z-score: 0.759
- outcome: inactive

LINC01257 (long independently transcribed non-coding RNA 1257) #2
- total luciferase, z-score: 3.53
- outcome: active

LINC01257 (long independently transcribed non-coding RNA 1257) #3
- total luciferase, z-score: -0.258
- outcome: inactive

TTLL1 (TTL family tubulin polyglutamylase complex subunit L1) #1
- total luciferase, z-score: 0.891
- outcome: inactive

TTLL1 (TTL family tubulin polyglutamylase complex subunit L1) #2
- total luciferase, z-score: -0.554
- outcome: inactive

TTLL1 (TTL family tubulin polyglutamylase complex subunit L1) #3
- total luciferase, z-score: 0.0058
- outcome: inactive

AZIN2 (antizyme inhibitor 2) #1
- total luciferase, z-score: -1.37
- outcome: inactive

AZIN2 (antizyme inhibitor 2) #2
- total luciferase, z-score: 0.0707
- outcome: inactive

AZIN2 (antizyme inhibitor 2) #3
- total luciferase, z-score: -0.101
- outcome: inactive

ZNF92 (zinc finger protein 92) #1
- total luciferase, z-score: -0.107
- outcome: inactive

ZNF92 (zinc finger protein 92) #2
- total luciferase, z-score: 1.02
- outcome: inactive

ZNF92 (zinc finger protein 92) #3
- total luciferase, z-score: 0.61
- outcome: inactive

GP1BA (glycoprotein Ib platelet subunit alpha) #1
- total luciferase, z-score: -1.1
- outcome: inactive

GP1BA (glycoprotein Ib platelet subunit alpha) #2
- total luciferase, z-score: 0.0436
- outcome: inactive

GP1BA (glycoprotein Ib platelet subunit alpha) #3
- total luciferase, z-score: 1.59
- outcome: inactive

TCEAL9 (transcription elongation factor A like 9) #1
- total luciferase, z-score: -1.07
- outcome: inactive

TCEAL9 (transcription elongation factor A like 9) #2
- total luciferase, z-score: 0.308
- outcome: inactive

TCEAL9 (transcription elongation factor A like 9) #3
- total luciferase, z-score: 0.831
- outcome: inactive

DICER1 (dicer 1, ribonuclease III) #1
- total luciferase, z-score: -1.13
- outcome: inactive

DICER1 (dicer 1, ribonuclease III) #2
- total luciferase, z-score: -0.0262
- outcome: inactive

DICER1 (dicer 1, ribonuclease III) #3
- total luciferase, z-score: 2
- outcome: inactive

C9 (complement C9) #1
- total luciferase, z-score: 0.246
- outcome: inactive

C9 (complement C9) #2
- total luciferase, z-score: -0.779
- outcome: inactive

C9 (complement C9) #3
- total luciferase, z-score: -0.923
- outcome: inactive

TLX2 (T cell leukemia homeobox 2) #1
- total luciferase, z-score: 1.59
- outcome: inactive

TLX2 (T cell leukemia homeobox 2) #2
- total luciferase, z-score: -0.421
- outcome: inactive

TLX2 (T cell leukemia homeobox 2) #3
- total luciferase, z-score: 0.422
- outcome: inactive

MYD88 (MYD88 innate immune signal transduction adaptor) #1
- total luciferase, z-score: 2.32
- outcome: inactive

MYD88 (MYD88 innate immune signal transduction adaptor) #2
- total luciferase, z-score: -0.501
- outcome: inactive

MYD88 (MYD88 innate immune signal transduction adaptor) #3
- total luciferase, z-score: -0.841
- outcome: inactive
